In doi:10.1101/2022.08.17.504273:
Results are given in words; binding and its absence hold for the method and conditions named. For some assays here: Tags and fused reporters may be left off the sequences shown.

Sequences of proteins named here, by UniProt entry; tags and fusion partners are left off. Residues count along the entry.
UniProt Q14203, residues 350-547: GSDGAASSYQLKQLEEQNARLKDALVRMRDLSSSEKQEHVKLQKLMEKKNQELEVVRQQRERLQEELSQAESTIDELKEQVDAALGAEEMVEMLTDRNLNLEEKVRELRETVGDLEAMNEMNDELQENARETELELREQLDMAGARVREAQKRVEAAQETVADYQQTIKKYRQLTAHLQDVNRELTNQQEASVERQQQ

T1: GST-JIP3^563–585 (JIP3^helix construct) (human) (UniProt Q9UPT6)
T1 sequence: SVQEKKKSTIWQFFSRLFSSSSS

B1: JIP3 1-108_V60Q (RH1-domain mutant) (domain or fragment, UniProt Q9ESN9-5 1-108)
chain: MMEIQMDEGGGVVVYQDDYCSGSVMSERVSGLAGSIYREFERLIHCYDEEVVKELMPLVQNVLENLDSVLSENQEHEVELELLREDNEQLLTQYEREKALRKQAEEKF
B2: GCN4-WD40-SNAP (protein, UniProt P43034 81-410)
chain: GSGSVKQLEDKVEELLSKNAHLENEVARLKKLVSGGPLGQKRDPKEWIPRPPEKYALSGHRSPVTRVIFHPVFSVMVSASEDATIKVWDYETGDFERTLKGHTDSVQDISFDHSGKLLASCSADMTIKLWDFQGFECIRTMHGHDHNVSSVAIMPNGDHIVSASRDKTIKMWEVQTGYCVKTFTGHREWVRMVRPNQDGTLIASCSNDQTVRVWVVATKECKAELREHEHVVECISWAPESSYSSISEATGSETKKSGKPGPFLLSGSRDKTIKMWDVSTGMCLMTLVGHDNWVRGVLFHSGGKFILSCADDKTLRVWDYKNKRCMKTLNAHEHFVTSLDFHKTAPYVVTGSVDQTVKVWECR
B3: LIS1^mut (protein, UniProt P43034 1-410)
chain: MVASQEARDELNRAIADYLRSNGYEEAYSVFKKEAELDVNEELDKEYAGLLEEEWAAVAELAEEVMELRSKLNEAKEEFTSGGPLGQKRDPKEWIPRPPEKYALSGHRSPVTRVIFHPVFSVMVSASEDATIKVWDYETGDFERTLKGHTDSVQDISFDHSGKLLASCSADMTIKLWDFQGFECIRTMHGHDHNVSSVAIMPNGDHIVSASRDKTIKMWEVQTGYCVKTFTGHREWVRMVRPNQDGTLIASCSNDQTVRVWVVATKECKAELREHEHVVECISWAPESSYSSISEATGSETKKSGKPGPFLLSGSRDKTIKMWDVSTGMCLMTLVGHDNWVRGVLFHSGGKFILSCADDKTLRVWDYKNKRCMKTLNAHEHFVTSLDFHKTAPYVVTGSVDQTVKVWECR
B4: WD40-SNAP (LIS1 residues 90-410) (domain or fragment, UniProt P43034 90-410)
chain: DPKEWIPRPPEKYALSGHRSPVTRVIFHPVFSVMVSASEDATIKVWDYETGDFERTLKGHTDSVQDISFDHSGKLLASCSADMTIKLWDFQGFECIRTMHGHDHNVSSVAIMPNGDHIVSASRDKTIKMWEVQTGYCVKTFTGHREWVRMVRPNQDGTLIASCSNDQTVRVWVVATKECKAELREHEHVVECISWAPESSYSSISEATGSETKKSGKPGPFLLSGSRDKTIKMWDVSTGMCLMTLVGHDNWVRGVLFHSGGKFILSCADDKTLRVWDYKNKRCMKTLNAHEHFVTSLDFHKTAPYVVTGSVDQTVKVWECR

Columns and labels:
[1] = target: T1, GST-JIP3^563–585 (JIP3^helix construct) (human); test: pull-down
[2] = target: GST-CC1B (GST-Psc-DCTN1(residues 350-547)-GFP-6xHis) (human (by the printed UniProt entry)) (UniProt Q14203); test: pull-down
[3] = target: WD40-SNAP (LIS1 residues 90-410) (human) (UniProt P43034); test: SEC-MALS

Binder	binding [1]	binding [2]	binding [3]
B1	no binding	–	–
B2	–	no binding	–
B3	–	no binding	–
B4	–	no binding	no binding (tested: 1 mg/mL)
